Data published in article PMC5533947.
These are yes or no findings as the source states them, for the method shown. In cells and extracts the contact can be indirect. Some results given as binding are weak or reduced against the parent protein; the word gives no strength.

Amino acid sequences for entries named in this document (tags omitted).
UniProt Q14643: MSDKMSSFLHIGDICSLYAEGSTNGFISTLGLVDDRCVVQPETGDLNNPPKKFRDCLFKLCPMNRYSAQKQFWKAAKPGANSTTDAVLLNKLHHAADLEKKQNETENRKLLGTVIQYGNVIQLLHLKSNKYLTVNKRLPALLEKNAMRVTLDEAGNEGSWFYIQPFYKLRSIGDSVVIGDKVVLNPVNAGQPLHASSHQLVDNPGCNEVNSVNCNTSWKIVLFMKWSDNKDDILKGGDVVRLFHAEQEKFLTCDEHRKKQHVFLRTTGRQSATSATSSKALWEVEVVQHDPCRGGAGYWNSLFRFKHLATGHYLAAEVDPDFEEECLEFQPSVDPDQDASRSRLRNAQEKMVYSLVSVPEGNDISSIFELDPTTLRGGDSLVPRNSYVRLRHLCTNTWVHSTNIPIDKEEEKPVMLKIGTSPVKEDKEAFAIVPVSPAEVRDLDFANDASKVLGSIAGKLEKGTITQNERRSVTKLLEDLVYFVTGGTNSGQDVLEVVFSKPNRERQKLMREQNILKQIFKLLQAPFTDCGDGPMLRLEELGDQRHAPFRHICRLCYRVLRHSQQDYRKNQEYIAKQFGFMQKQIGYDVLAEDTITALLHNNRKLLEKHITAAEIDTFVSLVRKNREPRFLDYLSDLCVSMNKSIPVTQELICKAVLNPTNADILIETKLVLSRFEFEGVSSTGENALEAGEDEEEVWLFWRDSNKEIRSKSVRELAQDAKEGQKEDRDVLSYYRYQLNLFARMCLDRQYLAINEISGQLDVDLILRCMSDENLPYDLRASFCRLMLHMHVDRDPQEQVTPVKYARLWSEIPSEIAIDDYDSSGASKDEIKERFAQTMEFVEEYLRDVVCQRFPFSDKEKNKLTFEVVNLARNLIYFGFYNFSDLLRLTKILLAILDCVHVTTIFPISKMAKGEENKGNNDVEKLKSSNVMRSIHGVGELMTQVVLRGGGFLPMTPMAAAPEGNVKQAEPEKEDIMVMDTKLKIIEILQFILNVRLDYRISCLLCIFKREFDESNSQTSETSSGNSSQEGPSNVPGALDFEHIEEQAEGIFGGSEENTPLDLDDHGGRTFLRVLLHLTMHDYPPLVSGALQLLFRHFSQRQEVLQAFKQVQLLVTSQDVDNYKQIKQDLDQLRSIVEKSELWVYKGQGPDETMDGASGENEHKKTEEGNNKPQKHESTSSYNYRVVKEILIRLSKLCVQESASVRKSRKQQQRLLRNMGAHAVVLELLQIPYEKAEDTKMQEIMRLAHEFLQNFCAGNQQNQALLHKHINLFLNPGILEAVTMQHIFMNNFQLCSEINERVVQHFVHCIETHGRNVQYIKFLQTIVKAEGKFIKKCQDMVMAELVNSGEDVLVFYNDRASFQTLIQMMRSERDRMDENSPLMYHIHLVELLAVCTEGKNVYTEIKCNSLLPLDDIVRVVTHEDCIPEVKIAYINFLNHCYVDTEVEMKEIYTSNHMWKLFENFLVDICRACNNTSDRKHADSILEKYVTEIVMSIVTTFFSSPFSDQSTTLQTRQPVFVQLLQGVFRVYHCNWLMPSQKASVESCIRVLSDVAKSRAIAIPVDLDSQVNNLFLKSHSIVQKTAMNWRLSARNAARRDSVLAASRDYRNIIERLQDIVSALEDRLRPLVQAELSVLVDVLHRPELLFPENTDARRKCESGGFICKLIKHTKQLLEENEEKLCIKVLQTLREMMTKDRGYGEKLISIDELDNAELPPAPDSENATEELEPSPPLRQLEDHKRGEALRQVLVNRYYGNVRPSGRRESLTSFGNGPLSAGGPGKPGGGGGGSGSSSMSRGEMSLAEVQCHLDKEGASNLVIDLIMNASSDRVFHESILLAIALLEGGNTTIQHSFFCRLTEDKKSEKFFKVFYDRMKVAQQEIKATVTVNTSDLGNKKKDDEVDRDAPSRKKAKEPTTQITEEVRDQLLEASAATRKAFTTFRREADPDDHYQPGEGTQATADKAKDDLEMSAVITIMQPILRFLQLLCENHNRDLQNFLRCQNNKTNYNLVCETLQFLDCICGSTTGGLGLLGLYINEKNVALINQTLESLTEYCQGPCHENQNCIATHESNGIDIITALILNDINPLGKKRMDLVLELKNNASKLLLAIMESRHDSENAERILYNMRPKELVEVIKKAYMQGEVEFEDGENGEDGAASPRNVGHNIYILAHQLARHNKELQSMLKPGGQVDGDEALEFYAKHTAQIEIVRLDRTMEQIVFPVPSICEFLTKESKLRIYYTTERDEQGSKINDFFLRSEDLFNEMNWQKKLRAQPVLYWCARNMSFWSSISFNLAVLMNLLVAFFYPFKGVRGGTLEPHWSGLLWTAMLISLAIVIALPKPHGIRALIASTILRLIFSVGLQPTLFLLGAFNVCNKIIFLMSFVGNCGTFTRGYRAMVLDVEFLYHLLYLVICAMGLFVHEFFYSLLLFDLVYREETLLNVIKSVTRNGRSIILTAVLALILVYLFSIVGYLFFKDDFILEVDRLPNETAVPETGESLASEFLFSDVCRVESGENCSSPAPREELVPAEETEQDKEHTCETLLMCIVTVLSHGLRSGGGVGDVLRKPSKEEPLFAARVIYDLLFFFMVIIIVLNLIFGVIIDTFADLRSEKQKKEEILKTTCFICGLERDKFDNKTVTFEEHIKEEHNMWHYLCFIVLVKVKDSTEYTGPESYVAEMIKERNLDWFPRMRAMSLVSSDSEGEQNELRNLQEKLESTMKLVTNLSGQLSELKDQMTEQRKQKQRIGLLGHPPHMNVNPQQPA

Molecular target: IP3R1, endogenous in HepG2 cells (human (endogenous in HepG2)) (UniProt Q14643)
Experiment: co-IP; endogenous proteins of HepG2 cells; IP with anti-IP3R1 antibody, blot with anti-RCN1 or anti-IP3R1

B1: RCN1, endogenous in HepG2 cells (protein, UniProt Q15293 30-331)
chain: KPTVRKERVVRPDSELGERPPEDNQSFQYDHEAFLGKEDSKTFDQLTPDESKERLGKIVDRIDNDGDGFVTTEELKTWIKRVQKRYIFDNVAKVWKDYDRDKDDKISWEEYKQATYGYYLGNPAEFHDSSDHHTFKKMLPRDERRFKAADLNGDLTATREEFTAFLHPEEFEHMKEIVVLETLEDIDKNGDGFVDQDEYIADMFSHEENGPEPDWVLSEREQFNEFRDLNKDGKLDKDEIRHWILPQDYDHAQAEARHLVYESDKNKDEKLTKEEILENWNMFVGSQATNYGEDLTKNHDEL
binding: binds
